Results are given in words; binding and its absence hold for the method and conditions named.
Target: tsetse salivary gland protein 1 (native, in tsetse fly saliva) (Glossina morsitans morsitans (endogenous in saliva)) (UniProt D3TS87)
Assay: SEC; total saliva on Superdex 200; fractions analysed by silver-stained SDS-PAGE and by western blot with rabbit anti-Tsal1&2 polyclonal IgGs

binding: no binding
B1: tsetse salivary gland protein 1 (native, in tsetse fly saliva) (protein, UniProt D3TS87 23-399)
chain: DCSLKIPESVENEKTPVIMVRKSLKTFEYDLFQPTGEVTNFPERTELLLACTGAQNYFKNGEESVTLMCHNNEFDDGQGNGLDLFTCVKTPTAELRKTKERCSLGDLYVYDVVFRISEEELVGPVYDICYNEYSQKPAYSRNIINGAAVNYRVPESETDLTVSLAKDFTTRDVNNYFKLENQKQRFQGYTIDGKPLVDDKNFFAPGQLAPDTSMITPADKLSTYDYANIVPQYKTVYDGNVWRVENITRDLAVNRQAKFEVYTGGYERLTALHNGKEEEIFLSAKKYVHEIPKYIYKFVVDKENDAGIVFFTLNNPHVKNVKGTEFCKNQCEEANVLDSNFKDWTQGYTFCCTWNNVKDYVRALPQDIEINNLLKFN

— paper PMC3479092, “Tsetse Salivary Gland Proteins 1 and 2 Are High Affinity Nucleic Acid Binding Proteins with Residual Nuclease Activity”
